Measurements as given in PMC4906247.
Results are given in words; binding and its absence hold for the method and conditions named. In cells and extracts the contact can be indirect. Some results given as binding are weak or reduced against the parent protein; the word gives no strength.

By UniProt entry, the sequences of proteins in these tests, tags left out.
UniProt Q9UIK4: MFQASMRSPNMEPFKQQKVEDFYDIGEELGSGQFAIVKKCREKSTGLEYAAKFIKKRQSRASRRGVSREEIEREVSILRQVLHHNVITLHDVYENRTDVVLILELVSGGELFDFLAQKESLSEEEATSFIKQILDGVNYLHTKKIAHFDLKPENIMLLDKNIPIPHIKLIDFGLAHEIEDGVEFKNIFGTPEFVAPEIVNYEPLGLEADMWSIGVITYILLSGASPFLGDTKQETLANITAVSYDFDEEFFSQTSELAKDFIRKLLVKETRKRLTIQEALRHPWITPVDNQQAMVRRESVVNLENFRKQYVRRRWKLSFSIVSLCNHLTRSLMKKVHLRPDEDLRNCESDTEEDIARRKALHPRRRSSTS

Biological target: full-length hDAPK2 (hDAPK2 FL), BiFC construct (human) (UniProt Q9UIK4)
Test: split reporter; bimolecular fluorescence complementation in HEK293T cells, readout normalized to protein expression; endogenous Ca2+/CaM present

binding: binds
Substance: full-length hDAPK2 (hDAPK2 FL), BiFC construct (from UniProt Q9UIK4 1-370)
